# Test results as given in the supplement of paper PMC10503962.
# Some of the results follow. Repeats are few or missing, and single values can be far off.
# Tested on: Trichuris muris adult worms
# Assay: median motility score (Paragon pixel variance) of adult worms (arbitrary units); higher = more motile worms
# Conditions: 24 h
smiles,measurement,setting,value
COc1ccc(Cc2nccc3cc(OC)c(OC)cc23)cc1OC [papaverine],median motility score,20 µM,1520
same,median motility score,50 µM,3370
same,median motility score,100 µM,3770
